# The list shows a part of the results. The main result of the screen is listed elsewhere. These columns were measured beside it and carry no call. For some of these results: The list favours compounds with an active or inconclusive main result. Words in brackets tell the shape of the fitted curve; partial curves, single points and poor fits give uncertain potencies.
# By UniProt entry, the sequences of proteins in these tests, tags left out. Where a name states a change or a piece, a line headed by the entry shows the natural chain unless it says otherwise.
# UniProt P21964: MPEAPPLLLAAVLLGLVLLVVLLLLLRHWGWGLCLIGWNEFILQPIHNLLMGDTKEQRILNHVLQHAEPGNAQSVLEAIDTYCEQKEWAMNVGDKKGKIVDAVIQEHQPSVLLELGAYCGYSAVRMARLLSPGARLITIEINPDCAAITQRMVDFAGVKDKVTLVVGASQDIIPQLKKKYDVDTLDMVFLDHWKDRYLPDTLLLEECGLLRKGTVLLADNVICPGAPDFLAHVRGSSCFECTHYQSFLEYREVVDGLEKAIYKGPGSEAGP
# UniProt P40261: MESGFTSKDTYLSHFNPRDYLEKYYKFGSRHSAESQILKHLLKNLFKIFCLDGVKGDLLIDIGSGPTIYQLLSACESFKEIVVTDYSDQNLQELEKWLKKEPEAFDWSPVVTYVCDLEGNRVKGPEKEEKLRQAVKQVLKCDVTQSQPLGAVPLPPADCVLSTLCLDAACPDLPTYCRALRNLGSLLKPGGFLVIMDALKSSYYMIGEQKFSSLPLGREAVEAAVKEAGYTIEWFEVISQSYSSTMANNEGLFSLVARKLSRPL
# Key:
# [1] = Validation of Assay for Modulators of Lamin A Splicing (AID 1459); conditions: Lamin A splicing dual RFP/GFP fluorescence reporter, ratio
# Method in brief: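 Readout: ratio of GFP (500-530 nm) to RFP (575-640 nm) total object intensity by 488 nm laser-scanning cytometry after 48 hrs. Cells were HeLa S3 clones carrying lamin A-EGFP minigene plus DsRed2 viability reporter; vehicle 0.5% DMSO final.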
# [2] = qHTS Assay for Lipid Storage Modulators (AID 1519); conditions: Drosophila S3 cells, BODIPY lipid droplet/cell ratio, laser cytometry, cells loaded with oleic acid
# Method in brief: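 Cells seeded at 5,000 per well were treated with compounds over a concentration series and loaded with oleic acid (400 uM, as added). Lipid droplet fluorescence (488 nm excitation, 500-530 nm channel) was read by laser-scanning cytometry and normalized to 20 uM Triacsin C.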
# [3] = qHTS Assay for Modulators of Human Peripheral Myelin Protein 22 (PMP22) Expression/Activity (AID 1967); conditions: Cell-based PMP22 reporter, dual-color luciferase ratio
# Method in brief: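 Mouse MSC80 Schwann line, Pmp22 promoter–CBG68 reporter, EF-alpha–CBR internal control. 24h compound exposure, 37 °C/5% CO2, DMEM + 10% FBS. Readout: corrected green/red luminescence ratio, normalized to untreated cells; concentration-response curves fitted and classified.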
# [4] = target: Catechol O-methyltransferase (Homo sapiens) (UniProt P21964); test: Confirmatory Screen for Target Class Profiling of Small Molecule Inhibitors of Methyltransferases (AID 1745852); conditions: MTase-Glo luminescence, SAH detection, recombinant enzyme; measured here: COMT inhibition potency
# [5] = Nrf2 qHTS screen for inhibitors: Validation (AID 493153); conditions: A549 ARE-Fluc reporter, 18-24 h; AC50: CellTiter-Fluor fluorescence read, measured here: cytotoxicity CellTiter-Fluor AC50; viability change: measured here: cytotoxicity max response
# Method in brief: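 A549 ARE_Fluc, 5% FBS OPTI-MEM; cpd titration, 18-24 h, 37°C/5% CO2. Read 1: CellTiter-Fluor (Ex 405/Em 525), cytotox. Read 2: luciferase lum, Nrf2 activity.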
# [6] = qHTS Validation Assay to Find Inhibitors of Chronic Active B-Cell Receptor Signaling (AID 485345); conditions: ABC-DLBCL cells, chronic BCR signaling reporter
# Method in brief: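 TMD8 ABC-DLBCL cells with dox-inducible green luciferase–IκBα fusion and red native luciferase; compounds 46 uM–3 nM, 4 h at 37C with doxycycline in 0.5% FBS IMDM. Green/red ratio normalized to basal and 10 uM MG-132.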
# [7] = target: Nicotinamide N-methyltransferase (Homo sapiens) (UniProt P40261); test: Confirmatory Screen for Target Class Profiling of Small Molecule Inhibitors of Methyltransferases (AID 1745852); conditions: MTase-Glo luminescence, SAH detection, recombinant enzyme; measured here: NNMT inhibition potency
# [8] = qHTS drug screen for cell cycle checkpoint inhibitors in PARPi-resistant BRCA-mutant ovarian cancer cell lines. (AID 1963452); conditions: PEO1/OlaR viability, CellTiter-Glo luminescence, 96 h
# Method in brief: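 PEO1, PEO4 and PEO1/OlaR ovarian cancer cells, 600 per well, exposed 96 h at 37C to a dilution series. Viability read by CellTiter-Glo luminescence, normalized to DMSO and empty wells; activity summarized as Z-AUC.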
# [9] = qHTS for identification of novel therapeutic agents for treatment of microphthalmiaassociated transcription factor (MiT) renal cell carcinoma (RCC) (AID 1963991); conditions: CellTiter-Glo, 48 h; for z-score: stronger effect = lower value;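 as to z-score: curves scaled with 100% = DMSO viability and 0% = empty wells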
# Method in brief: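 UOK109/UOK124/UOK145 (TFE3 fusions, three partners); 500 cells/well; MIPE v4.0, 1912 cpds, 11 conc.; 48 h, 37 C; CellTiter-Glo, 15 min RT; lum. Norm.: DMSO 100%, empty 0%.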
# [10] = measured here: cell count channel max response
# [11] = measured here: cell number channel AC50
# [12] = measured here: lipid (BODIPY) channel AC50
# [13] = measured here: lipid channel max response
# [14] = measured here: green reporter channel AC50, mouse Pmp22 promoter in mouse Schwann cells
# [15] = measured here: red reporter channel AC50, EF-alpha promoter control reporter in MSC80 mouse Schwann cells
# [16] = measured here: CBR control luciferase (viability counter)
# [17] = measured here: CBG/CBR ratio read-out
compound,measurement,setting,value
CNCCc1ccc(O)c(O)c1,AC50,[1]; measured here: GFP channel,"35.5 µM [falling, single point]"
same,AC50,[1]; measured here: RFP channel,"22.4 µM [falling, partial curve, poor fit]"
same,max response,[2]; [10],46%
same,AC50,[2]; [11],"7.94 µM [falling, full curve, poor fit]"
same,AC50,[2]; [12],"7.94 µM [falling, full curve, poor fit]"
same,max response,[2]; [13],49.1%
same,AC50,[3]; [14],"75.7 µM [falling, partial curve]"
same,AC50,[3]; [15],"67.5 µM [falling, partial curve]"
same,IC50,[4],"13.7 µM [rising, partial curve]"
C[C@]12CC[C@@H](O)CC1CCC1C2CC[C@]2(C)C(=O)CC[C@@H]12 (some centres undefined),AC50,[1]; measured here: GFP channel,"11.2 µM [falling, single point]"
same,AC50,[1]; measured here: RFP channel,"0.708 µM [falling, partial curve, poor fit]"
same,max response,[2]; [10],22.8%
same,AC50,[2]; [11],"0.00891 µM [falling, full curve, poor fit]"
same,AC50,[2]; [12],"0.00891 µM [falling, full curve, poor fit]"
same,max response,[2]; [13],25.2%
same,AC50,[3]; [15],"95.3 µM [falling, single point]"
O=C1OC(=O)C2C3CCC(O3)C12 (centres undefined),AC50,[1]; measured here: GFP channel,"20 µM [rising, partial curve]"
same,AC50,[1]; measured here: RFP channel,"20 µM [rising, partial curve]"
same,max response,[2]; [10],-4.01%
same,AC50,[2]; [11],"15.8 µM [falling, single point]"
same,AC50,[2]; [12],"15.8 µM [falling, single point]"
same,max response,[2]; [13],-0.167%
same,AC50,[3]; [15],"75.7 µM [falling, partial curve]"
CN1C[C@H](CNC(=O)OCc2ccccc2)C[C@@H]2c3cccc4c3c(cn4C)C[C@H]21,AC50,[1]; measured here: GFP channel,"7.94 µM [falling, partial curve]"
same,AC50,[1]; measured here: RFP channel,"7.94 µM [falling, partial curve]"
same,max response,[2]; [10],93.4%
same,AC50,[2]; [11],"7.08 µM [rising, partial curve]"
same,AC50,[2]; [12],"7.94 µM [rising, partial curve]"
same,max response,[2]; [13],122%
same,AC50,[3]; [15],"30.1 µM [rising, single point]"
same,viability change,[5],-2.78%
CNc1ccc2oc(C[C@H]3O[C@@]4(CC[C@H]3C)O[C@H]([C@H](C)C(=O)c3ccc[nH]3)[C@H](C)C[C@H]4C)nc2c1C(=O)O,AC50,[1]; measured here: GFP channel,"3.55 µM [falling, full curve]"
same,AC50,[1]; measured here: RFP channel,"2.82 µM [falling, full curve]"
same,max response,[2]; [10],-31.7%
same,max response,[2]; [13],-75.1%
same,AC50,[3]; [14],"2.69 µM [falling, full curve]"
same,AC50,[3]; [15],"6.01 µM [falling, full curve]"
same,AC50,[6]; [16],"29.1 µM [falling, single point]"
same,IC50,[7],"24.3 µM [falling, partial curve]"
COc1ccc2c(c[n+](C)c3c4cc5c(cc4ccc23)OCO5)c1OC,AC50,[1]; measured here: GFP channel,"2.82 µM [falling, full curve]"
same,AC50,[1]; measured here: RFP channel,"2.82 µM [falling, full curve]"
same,max response,[2]; [10],-102%
same,AC50,[2]; [11],"14.1 µM [falling, full curve, poor fit]"
same,AC50,[2]; [12],"14.1 µM [falling, full curve, poor fit]"
same,max response,[2]; [13],-116%
same,AC50,[3]; [14],"37.9 µM [falling, full curve]"
same,AC50,[3]; [15],"21.3 µM [falling, full curve]"
same,AC50,[6]; [17],"16.4 µM [falling, single point]"
same,AC50,[6]; [16],"13 µM [falling, partial curve]"
same,AC50,[8]; measured here: PEO1 parental viability,"24.5 µM [falling, single point]"
same,AC50,[8]; measured here: PEO4 viability,"27.5 µM [falling, single point]"
same,z-score,"[9]; TFE3-RCC UOK109 viability, measured here: UOK109 Z-AUC",-0.625
same,z-score,"[9]; TFE3-RCC viability, measured here: UOK124 Z-AUC",-0.392
same,AC50,"[9]; TFE3-RCC viability, measured here: UOK124 cell viability","9.35 µM [falling, full curve]"
same,z-score,"[9]; TFE3-RCC viability, measured here: UOK145 Z-AUC",-1.08
same,AC50,"[9]; TFE3-RCC viability, measured here: UOK145 cell viability","7.43 µM [falling, full curve]"
CCCN1CCc2cc(O)cc3c2C1Cc1ccc(O)c(O)c1-3 (centres undefined),AC50,[1]; measured here: GFP channel,"15.8 µM [falling, single point]"
same,AC50,[1]; measured here: RFP channel,"11.2 µM [falling, partial curve, poor fit]"
same,max response,[2]; [10],78.3%
same,AC50,[2]; [12],"22.4 µM [falling, partial curve, poor fit]"
same,max response,[2]; [13],81.2%
same,AC50,[3]; [14],"60.1 µM [falling, partial curve]"
same,AC50,[3]; [15],"75.7 µM [falling, partial curve]"
NC1CC1c1ccccc1 (centres undefined),AC50,[1]; measured here: GFP channel,"35.5 µM [falling, single point]"
same,AC50,[1]; measured here: RFP channel,"35.5 µM [falling, single point]"
same,max response,[2]; [10],60.2%
same,max response,[2]; [13],57.9%
same,AC50,[3]; [15],"21.3 µM [rising, partial curve]"
CC1(C(=O)O)C2CCC(O2)C1(C)C(=O)O (centres undefined),AC50,[1]; measured here: GFP channel,"4.47 µM [falling, full curve]"
same,AC50,[1]; measured here: RFP channel,"14.1 µM [falling, single point]"
same,max response,[2]; [10],14.7%
same,AC50,[2]; [12],"2.51 µM [falling, partial curve, poor fit]"
same,max response,[2]; [13],7.42%
same,AC50,[3]; [14],"19 µM [falling, full curve]"
same,AC50,[3]; [15],"16.9 µM [falling, full curve]"
same,AC50,[6]; [17],"6.51 µM [falling, single point]"
same,AC50,[6]; [16],"2.91 µM [rising, full curve]"
same,AC50,[5],"1.46 µM [falling, full curve]"
same,viability change,[5],-40.9%

# 3 entries picked at random from those above, as already listed:
compound,measurement,setting,value
CN1C[C@H](CNC(=O)OCc2ccccc2)C[C@@H]2c3cccc4c3c(cn4C)C[C@H]21,AC50,[1]; measured here: RFP channel,"7.94 µM [falling, partial curve]"
NC1CC1c1ccccc1 (centres undefined),AC50,[3]; [15],"21.3 µM [rising, partial curve]"
COc1ccc2c(c[n+](C)c3c4cc5c(cc4ccc23)OCO5)c1OC,AC50,[2]; [12],"14.1 µM [falling, full curve, poor fit]"
